{"source": "patent US20210188972A1", "about": "(A AND G PHARMACEUTICAL, published 2021)", "binders": {"B1": {"name": "33B7 (antibody, V domains shown)", "VH": "DVQLQESGPGLVKPSQSLSLTCSVTGCSITSGYYWNWIRQFPGNKLEWMGYISHDGNNNYSPSLKNRISITRDTSKNQFFLKLNSVTTEDTATYYCARGFYYYGYFGYWGQGTTLTVSS", "VL": "DIVMSQSPSSLAVSVGEKVTMSCKSSQSLLYSTNQKNYLAWYQQKPGQSPKPLIYWASTRESGVPDRFTGSGSGTDFTLTISSVKAEDLAVYYCQQYYSYRTFGGGTKLEIKR", "notes": "Murine hybridoma monoclonal IgG (ATCC PTA-124281); also called AG02; AGO2"}}, "target": "PTGFRN on SCSC cells (hamster spindle cell sarcomatoid carcinoma) (hamster)", "test": "immunoprecipitation from biotinylated SCSC membrane lysate, western blot, mass spectrometry", "note": "No constants are given. Whether binding was seen depends on the method and setting. Binding seen in cells or lysates may run through a third protein. Here binding means that the protein was enriched with, or labelled near, the bait; the list need not be complete."}
{"binder": "B1", "values": [{"measurement": "binding", "result": "binds"}]}
